For at least one compound, name, drawing or mass did not settle the structure.
System: C57BL6/J mice
Experiment: Hair growth (telogen to anagen transition) after topical treatment of shaved mice
Type: in vivo
Conditions: 3% each diluted in DMSO, FIG. 9
Experimental: All adult wild-type (C57BL6/J) mice were approximate 8.5 weeks old and obtained from Jackson Labs (#00664). All animals were maintained in an AAALAC (Accreditation of Laboratory Animal Care International)—approved facility at Johns Hopkins University. All experimental procedures were approved by the Institutional Animal Care and Use Committee at Johns Hopkins under the protocol #MO17M298.
Adult C57BL6/J mice were treated during the refractory period of hair dormancy (telogen) to allow for hair growth (anagen) re-initiation. To determine the anagen re-entry, mice were grossly observed for skin thickening and darkening. Mice were shaved on their dorsal side and the left half the skin was topically treated with either vehicle (DMSO) or prodrug (20% IS-100-142 (compound 5)) with the right side untreated. The treatment regimen was once every other day for a total of two treatment cycles.
In one aspect, the presently disclosed subject matter is directed to compounds that might be able to enhance hair growth. To this end, the ability of dimethyl itaconate to induce the transition from the resting phase of the hair cycle, telogen, to the growing phase of the hair cycle, anagen, in wild type mice was tested.
Finally, the ability of compound 5 to also induce hair growth as observed for DI was tested. […]

N#CC[C@H](C1CCCC1)n1cc(-c2ncnc3[nH]ccc23)cn1 [Ruxolitinib, reference compound]
hair growth compared with JAK inhibitors: comparable levels

From patent US12496284B2, “Use of itaconate and its derivatives/analogues to induce hair growth” (The Johns Hopkins University, priority 2019, dated 2025)
